# In patent publication US20230381248A1, “METHOD FOR TREATING AND/OR PREVENTING ATOPY AND ALLERGIC DISEASES BY USING BACTERIA OR COMPOSITIONS HAVING 7 ALPHA-DEHYDROXYLASE ACTIVITY, AND/OR BILE ACID RECEPTORS FXR AND/OR TGR5 AGONISTS” (NATIONAL TAIWAN UNIVERSITY HOSPITAL, priority 2022, published 2023):
# At least one structure is not confirmed: it was looked up by name or label, or the drawing left a doubt.
# Experiments:
# [1] = test system: OVA-induced allergic airway disease; assay: Severity of OVA-induced allergic airway disease after FxR and TGR5 agonist pre-treatment; type: in vivo, BALB/c mice; conditions: oral gavage 30 mg/kg/day twice a week from 3 w/o
# [2] = test system: PMN-MDSC and regulatory T-cell (Treg); assay: Induction of immune-regulatory cells by FxR and TGR5 agonist pre-treatment in the OVA allergic airway disease model, flow cytometry; type: in vivo, BALB/c mice; conditions: oral gavage 30 mg/kg/day twice a week from 3 w/o; BALF, PB, BM, Spl after aerosol OVA challenge; vs vehicle control
structure (smiles),measurement,setting,value
"CC[C@H]1[C@@H](O)[C@@H]2[C@H](CC[C@]3(C)[C@@H]([C@H](C)CCC(=O)O)CC[C@@H]23)[C@@]2(C)CC[C@@H](O)C[C@@H]12 [FxR agonist, 6-ECDCA]","four parameters indicative of allergic airway disease severity (seral OVA-specific IgE, BALF leukocyte counts, BALF IL-5, airway resistance to methacholine)",[1]; one day after 3rd aerosol OVA challenge,mitigated
same,airway disease severity,"[1]; vs control mice receiving vehicle, N=12-14 mice/group",significantly milder airway disease
same,"expansion of adaptive immune-regulatory cell, Treg",[2],can induce the expansion
same,"expansion of innate immune-regulatory cells, PMN-MDSC",[2],can induce the expansion
